Results as given in paper PMC7545202.
Read-outs that look alike come from different tables or passages of the source. These are yes or no findings as the source states them, for the method shown. Binding seen in cells or lysates may run through a third protein. Some binding calls cover weakened binding; strength is not graded here.

Protein sequences, listed by entry. Tags and fused reporters are not part of them.
UniProt Q5NCY0: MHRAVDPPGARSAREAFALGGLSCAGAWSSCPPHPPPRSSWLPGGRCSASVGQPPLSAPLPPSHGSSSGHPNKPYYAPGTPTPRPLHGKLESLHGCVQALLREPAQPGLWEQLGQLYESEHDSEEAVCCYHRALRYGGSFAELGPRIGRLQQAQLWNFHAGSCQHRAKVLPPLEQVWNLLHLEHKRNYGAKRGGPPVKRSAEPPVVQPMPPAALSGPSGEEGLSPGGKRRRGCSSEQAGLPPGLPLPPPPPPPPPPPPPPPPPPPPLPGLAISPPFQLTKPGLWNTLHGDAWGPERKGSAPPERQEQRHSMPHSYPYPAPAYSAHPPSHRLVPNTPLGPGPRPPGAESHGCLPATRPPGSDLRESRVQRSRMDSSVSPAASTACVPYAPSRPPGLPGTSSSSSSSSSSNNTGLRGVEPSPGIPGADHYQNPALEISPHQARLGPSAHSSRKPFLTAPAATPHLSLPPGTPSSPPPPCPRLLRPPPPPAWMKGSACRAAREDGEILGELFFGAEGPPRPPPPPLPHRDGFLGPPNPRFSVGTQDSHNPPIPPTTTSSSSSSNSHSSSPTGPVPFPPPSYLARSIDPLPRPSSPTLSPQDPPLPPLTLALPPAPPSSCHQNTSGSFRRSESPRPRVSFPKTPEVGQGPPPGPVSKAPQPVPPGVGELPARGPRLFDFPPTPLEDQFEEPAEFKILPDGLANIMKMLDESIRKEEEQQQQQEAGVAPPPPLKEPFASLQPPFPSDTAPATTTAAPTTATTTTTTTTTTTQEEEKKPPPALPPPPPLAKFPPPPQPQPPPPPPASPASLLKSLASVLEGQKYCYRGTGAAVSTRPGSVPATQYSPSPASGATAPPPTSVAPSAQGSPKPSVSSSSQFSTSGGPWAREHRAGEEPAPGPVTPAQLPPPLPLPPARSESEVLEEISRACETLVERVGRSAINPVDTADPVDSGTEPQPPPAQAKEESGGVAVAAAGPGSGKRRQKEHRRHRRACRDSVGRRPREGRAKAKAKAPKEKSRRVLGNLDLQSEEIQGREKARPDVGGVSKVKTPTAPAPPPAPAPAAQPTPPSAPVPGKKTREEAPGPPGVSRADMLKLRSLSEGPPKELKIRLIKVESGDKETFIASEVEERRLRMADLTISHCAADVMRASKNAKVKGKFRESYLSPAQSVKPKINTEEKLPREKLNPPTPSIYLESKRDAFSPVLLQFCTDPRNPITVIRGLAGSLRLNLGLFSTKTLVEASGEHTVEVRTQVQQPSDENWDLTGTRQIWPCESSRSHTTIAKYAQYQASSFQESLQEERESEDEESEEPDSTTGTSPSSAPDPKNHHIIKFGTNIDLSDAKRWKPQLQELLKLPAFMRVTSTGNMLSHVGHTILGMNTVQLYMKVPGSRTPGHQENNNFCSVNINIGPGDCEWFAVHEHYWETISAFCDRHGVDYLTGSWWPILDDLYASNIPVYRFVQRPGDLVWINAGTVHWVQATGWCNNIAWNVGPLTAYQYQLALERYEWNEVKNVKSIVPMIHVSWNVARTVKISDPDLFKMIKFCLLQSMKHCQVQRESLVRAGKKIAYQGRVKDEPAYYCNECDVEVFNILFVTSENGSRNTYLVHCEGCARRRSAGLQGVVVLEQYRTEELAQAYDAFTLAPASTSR
UniProt Q99J95: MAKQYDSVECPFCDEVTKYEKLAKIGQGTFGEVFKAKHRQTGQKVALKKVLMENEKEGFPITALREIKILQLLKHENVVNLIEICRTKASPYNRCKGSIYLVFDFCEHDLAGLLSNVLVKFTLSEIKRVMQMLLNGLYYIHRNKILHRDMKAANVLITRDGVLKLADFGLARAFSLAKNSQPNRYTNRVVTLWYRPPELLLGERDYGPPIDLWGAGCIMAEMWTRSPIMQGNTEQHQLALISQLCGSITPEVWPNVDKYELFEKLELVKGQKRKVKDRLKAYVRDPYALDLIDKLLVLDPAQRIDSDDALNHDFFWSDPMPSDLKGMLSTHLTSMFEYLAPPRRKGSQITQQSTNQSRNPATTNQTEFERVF
UniProt Q6KCD5: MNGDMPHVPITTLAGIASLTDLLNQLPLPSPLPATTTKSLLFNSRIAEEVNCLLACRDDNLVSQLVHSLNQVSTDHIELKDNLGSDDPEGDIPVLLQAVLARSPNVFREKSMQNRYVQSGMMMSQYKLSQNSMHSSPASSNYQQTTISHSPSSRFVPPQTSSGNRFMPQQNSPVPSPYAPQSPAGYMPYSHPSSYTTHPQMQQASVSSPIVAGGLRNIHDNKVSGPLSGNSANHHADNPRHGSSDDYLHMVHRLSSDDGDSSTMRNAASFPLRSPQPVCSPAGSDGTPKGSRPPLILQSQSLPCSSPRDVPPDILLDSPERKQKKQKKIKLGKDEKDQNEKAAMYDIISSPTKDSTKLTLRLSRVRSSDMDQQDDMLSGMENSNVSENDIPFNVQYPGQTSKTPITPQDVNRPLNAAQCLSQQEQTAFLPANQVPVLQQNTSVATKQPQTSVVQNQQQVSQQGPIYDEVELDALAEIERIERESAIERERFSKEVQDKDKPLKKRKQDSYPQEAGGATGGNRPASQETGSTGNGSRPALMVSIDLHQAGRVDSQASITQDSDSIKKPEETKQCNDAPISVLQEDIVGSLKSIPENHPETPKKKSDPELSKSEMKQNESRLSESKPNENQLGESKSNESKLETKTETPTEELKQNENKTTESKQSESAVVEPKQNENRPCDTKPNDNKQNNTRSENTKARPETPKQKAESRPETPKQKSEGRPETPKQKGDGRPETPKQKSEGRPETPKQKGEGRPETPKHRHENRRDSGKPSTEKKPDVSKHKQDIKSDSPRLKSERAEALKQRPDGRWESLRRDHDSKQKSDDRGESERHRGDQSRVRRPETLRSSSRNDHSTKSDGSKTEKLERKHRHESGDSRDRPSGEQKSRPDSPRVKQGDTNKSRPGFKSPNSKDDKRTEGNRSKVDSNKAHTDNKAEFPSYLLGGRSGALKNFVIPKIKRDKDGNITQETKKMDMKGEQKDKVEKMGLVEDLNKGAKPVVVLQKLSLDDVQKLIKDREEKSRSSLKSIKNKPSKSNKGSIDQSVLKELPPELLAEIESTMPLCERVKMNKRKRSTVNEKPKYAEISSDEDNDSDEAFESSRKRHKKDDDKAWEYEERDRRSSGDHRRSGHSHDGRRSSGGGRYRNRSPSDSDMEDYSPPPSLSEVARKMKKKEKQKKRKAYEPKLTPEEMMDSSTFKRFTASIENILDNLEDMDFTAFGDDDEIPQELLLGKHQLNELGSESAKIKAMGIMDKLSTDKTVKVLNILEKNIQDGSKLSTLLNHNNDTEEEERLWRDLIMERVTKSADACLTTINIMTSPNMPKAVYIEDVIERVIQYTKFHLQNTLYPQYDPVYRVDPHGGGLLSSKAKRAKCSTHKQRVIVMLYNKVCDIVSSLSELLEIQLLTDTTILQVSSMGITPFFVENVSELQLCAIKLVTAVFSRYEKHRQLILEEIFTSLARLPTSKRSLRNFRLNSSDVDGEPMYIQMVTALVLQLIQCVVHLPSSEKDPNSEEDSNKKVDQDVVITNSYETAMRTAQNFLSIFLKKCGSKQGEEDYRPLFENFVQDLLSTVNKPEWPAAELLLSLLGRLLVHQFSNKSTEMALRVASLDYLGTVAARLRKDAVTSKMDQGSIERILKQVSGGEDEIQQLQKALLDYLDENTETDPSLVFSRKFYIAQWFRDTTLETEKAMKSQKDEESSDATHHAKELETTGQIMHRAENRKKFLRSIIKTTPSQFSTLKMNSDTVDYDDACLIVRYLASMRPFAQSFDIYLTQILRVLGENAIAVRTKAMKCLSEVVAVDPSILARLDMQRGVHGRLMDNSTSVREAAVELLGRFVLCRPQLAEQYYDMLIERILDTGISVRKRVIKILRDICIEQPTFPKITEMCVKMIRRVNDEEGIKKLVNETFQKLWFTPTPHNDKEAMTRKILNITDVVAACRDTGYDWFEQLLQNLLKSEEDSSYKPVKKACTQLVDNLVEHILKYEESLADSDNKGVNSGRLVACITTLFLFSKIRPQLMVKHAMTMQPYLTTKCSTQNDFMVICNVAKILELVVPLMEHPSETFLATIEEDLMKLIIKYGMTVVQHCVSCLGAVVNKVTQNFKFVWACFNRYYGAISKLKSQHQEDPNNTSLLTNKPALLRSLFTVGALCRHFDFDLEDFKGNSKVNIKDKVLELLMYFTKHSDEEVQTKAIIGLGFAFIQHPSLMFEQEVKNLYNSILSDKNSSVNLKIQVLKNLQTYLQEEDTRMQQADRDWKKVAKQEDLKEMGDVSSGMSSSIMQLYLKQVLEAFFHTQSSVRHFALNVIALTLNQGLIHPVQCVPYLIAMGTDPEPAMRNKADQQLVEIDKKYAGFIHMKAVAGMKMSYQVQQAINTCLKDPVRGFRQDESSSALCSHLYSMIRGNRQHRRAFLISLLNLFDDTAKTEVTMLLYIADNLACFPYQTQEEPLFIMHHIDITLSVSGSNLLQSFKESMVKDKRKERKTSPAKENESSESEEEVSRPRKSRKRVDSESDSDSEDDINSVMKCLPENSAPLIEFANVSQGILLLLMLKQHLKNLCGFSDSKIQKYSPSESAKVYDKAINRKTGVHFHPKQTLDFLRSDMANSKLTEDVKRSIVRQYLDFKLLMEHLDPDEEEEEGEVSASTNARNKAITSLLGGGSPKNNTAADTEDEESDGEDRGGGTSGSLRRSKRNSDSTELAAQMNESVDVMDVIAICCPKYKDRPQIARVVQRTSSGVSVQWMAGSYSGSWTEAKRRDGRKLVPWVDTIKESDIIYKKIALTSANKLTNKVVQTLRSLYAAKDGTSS

Legend:
[1] = target: 3×FLAG-tagged JMJD3 (mouse) (UniProt Q5NCY0); assay: co-IP; anti-FLAG M2 magnetic beads with nuclear extracts (2 × 10^7 cells) from OSKM-reprogrammed P2 MEFs with 3×FLAG-tagged JMJD3 (day 5), overnight at 4 °C; washed 5-8 times (50 mM Tris-HCl pH 7.9, 100 mM KCl, 0.1% NP-40); eluted with 3×FLAG peptide; western blotting
[2] = target: 3×FLAG-tagged JMJD3 (mouse) (UniProt Q5NCY0); assay: as above; remark: listed apart in the source

Row | Molecule | binding [1] | binding [2]
1 | CDK9 (from UniProt Q99J95 1-372) (enzyme) | binds | 
2 | NIPBL (from UniProt Q6KCD5 1-2798) | binds | 
3 | SMC1A (protein, UniProt Q9CU62 1-1233) MGFLKLIEIENFKSYKGRQIIGPFQRFTAIIGPNGSGKSNLMDAISFVLGEKTSNLRVKTLRDLIHGAPVGKPAANRAFVSMVYSEEGAEDRTFARVIVGGSSEYKINNKVVQLHEYSEELEKLGILIKARNFLVFQGAVESIAMKNPKERTALFEEISRSGELAQEYDKRKKEMVKAEEDTQFNYHRKKNIAAERKEAKQEKEEADRYQRLKDEVVRAQVQLQLFKLYHNEVEIEKLNKELASKNKEIEKDKKRMDKVEDELKEKKKELGKMMREQQQIEKEIKEKDSELNQKRPQYIKAKENTSHKIKKLEAAKKSLQNAQKHYKKRKGDMDELEKEMLSVEKARQEFEERMEEESQSQGRDLTLEENQVKKYHRLKEEASKRAATLAQELEKFNRDQKADQDRLDLEERKKVETEAKIKQKLREIEENQKRIEKLEEYITTSKQSLEEQKKLEGELTEEVEMAKRRIDEINKELNQVMEQLGDARIDRQESSRQQRKAEIMESIKRLYPGSVYGRLIDLCQPTQKKYQIAVTKVLGKNMDAIIVDSEKTGRDCIQYIKEQRGEPETFLPLDYLEVKPTDEKLRELKGAKLVIDVIRYEPPHIKKALQYACGNALVCDNVEDARRIAFGGHQRHKTVALDGTLFQKSGVISGGASDLKAKARRWDEKAVDKLKEKKERLTEELKEQMKAKRKEAELRQVQSQAHGLQMRLKYSQSDLEQTKTRHLALNLQEKSKLESELANFGPRINDIKRIIQSREREMKDLKEKMNQVEDEVFEEFCREIGVRNIREFEEEKVKRQNEIAKKRLEFENQKTRLGIQLDFEKNQLKEDQDKVHMWEQTVKKDENEIEKLKKEEQRHMKIIDETMAQLQDLKNQHLAKKSEVNDKNHEMEEIRKKLGGANKEMTHLQKEVTAIETKLEQKRSDRHNLLQACKMQDIKLPLSKGTMDDISQEEGSSQGEESVSGSQRTSSIYAREALIEIDYGDLCEDLKDAQAEEEIKQEMNTLQQKLNEQQSVLQRIAAPNMKAMEKLESVRDKFQETSDEFEAARKRAKKAKQAFEQIKKERFDRFNACFESVATNIDEIYKALSRNSSAQAFLGPENPEEPYLDGINYNCVAPGKRFRPMDNLSGGEKTVAALALLFAIHSYKPAPFFVLDEIDAALDNTNIGKVANYIKEQSTCNFQAIVISLKEEFYTKAESLIGVYPEQGDCVISKVLTFDLTKYPDANPNPNEQ |  | binds
